Source: article PMC3900104
Substitutions are numbered along the chain they refer to. Results are given in words; binding and its absence hold for the method and conditions named. In cells and extracts the contact can be indirect. Some results given as binding are weak or reduced against the parent protein; the word gives no strength. For some assays here: Sequences can lack the tags named with a protein.

How the values were obtained:
[1] = target: T1, FLAG-tagged TRAK1 (trafficking-protein-Kinesin-binding-1), aa 2-953, in COS7 (human) (UniProt Q9UPV9); experiment: co-IP; as the FLAG IP of FLAG-TRAK1 plus Myc-DISC1 or Myc-DISC1-37W, but with high-speed lysates (Fig. S2)
T1 sequence: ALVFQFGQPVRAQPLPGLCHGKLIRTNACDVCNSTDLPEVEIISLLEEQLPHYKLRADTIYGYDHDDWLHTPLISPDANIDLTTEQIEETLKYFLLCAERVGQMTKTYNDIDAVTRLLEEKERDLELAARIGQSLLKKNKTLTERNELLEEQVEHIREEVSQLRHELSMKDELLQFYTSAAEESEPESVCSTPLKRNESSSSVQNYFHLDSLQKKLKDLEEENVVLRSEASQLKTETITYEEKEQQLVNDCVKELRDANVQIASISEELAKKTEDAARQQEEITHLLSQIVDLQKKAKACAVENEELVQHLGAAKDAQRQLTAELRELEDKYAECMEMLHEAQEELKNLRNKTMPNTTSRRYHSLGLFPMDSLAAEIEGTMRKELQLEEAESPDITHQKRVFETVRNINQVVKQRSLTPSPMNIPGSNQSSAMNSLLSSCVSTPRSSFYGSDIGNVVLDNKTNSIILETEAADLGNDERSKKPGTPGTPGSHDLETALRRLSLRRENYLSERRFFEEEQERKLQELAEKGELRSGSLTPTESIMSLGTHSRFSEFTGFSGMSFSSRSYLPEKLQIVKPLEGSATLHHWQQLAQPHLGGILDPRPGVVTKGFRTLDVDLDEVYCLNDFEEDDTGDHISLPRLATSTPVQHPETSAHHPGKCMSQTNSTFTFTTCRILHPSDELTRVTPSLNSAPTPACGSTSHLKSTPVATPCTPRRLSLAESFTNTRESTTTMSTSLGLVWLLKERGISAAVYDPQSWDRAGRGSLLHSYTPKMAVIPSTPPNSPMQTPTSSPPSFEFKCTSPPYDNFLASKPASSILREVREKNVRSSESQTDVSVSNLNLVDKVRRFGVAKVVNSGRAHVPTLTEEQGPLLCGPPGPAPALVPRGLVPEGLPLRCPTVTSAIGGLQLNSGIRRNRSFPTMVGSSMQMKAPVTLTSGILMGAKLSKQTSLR

[2] = target: T2, endogenous TRAK1 of HEK293 cells (human (endogenous in HEK293)) (UniProt Q9UPV9); experiment: co-IP; non-transfected HEK293 or SH-SY5Y cells; more stringent protocol, lysates centrifuged at 100 000g; IP with TRAK1 antibody; identity of the DISC1 band confirmed by DISC1 siRNA in HEK293
T2 sequence: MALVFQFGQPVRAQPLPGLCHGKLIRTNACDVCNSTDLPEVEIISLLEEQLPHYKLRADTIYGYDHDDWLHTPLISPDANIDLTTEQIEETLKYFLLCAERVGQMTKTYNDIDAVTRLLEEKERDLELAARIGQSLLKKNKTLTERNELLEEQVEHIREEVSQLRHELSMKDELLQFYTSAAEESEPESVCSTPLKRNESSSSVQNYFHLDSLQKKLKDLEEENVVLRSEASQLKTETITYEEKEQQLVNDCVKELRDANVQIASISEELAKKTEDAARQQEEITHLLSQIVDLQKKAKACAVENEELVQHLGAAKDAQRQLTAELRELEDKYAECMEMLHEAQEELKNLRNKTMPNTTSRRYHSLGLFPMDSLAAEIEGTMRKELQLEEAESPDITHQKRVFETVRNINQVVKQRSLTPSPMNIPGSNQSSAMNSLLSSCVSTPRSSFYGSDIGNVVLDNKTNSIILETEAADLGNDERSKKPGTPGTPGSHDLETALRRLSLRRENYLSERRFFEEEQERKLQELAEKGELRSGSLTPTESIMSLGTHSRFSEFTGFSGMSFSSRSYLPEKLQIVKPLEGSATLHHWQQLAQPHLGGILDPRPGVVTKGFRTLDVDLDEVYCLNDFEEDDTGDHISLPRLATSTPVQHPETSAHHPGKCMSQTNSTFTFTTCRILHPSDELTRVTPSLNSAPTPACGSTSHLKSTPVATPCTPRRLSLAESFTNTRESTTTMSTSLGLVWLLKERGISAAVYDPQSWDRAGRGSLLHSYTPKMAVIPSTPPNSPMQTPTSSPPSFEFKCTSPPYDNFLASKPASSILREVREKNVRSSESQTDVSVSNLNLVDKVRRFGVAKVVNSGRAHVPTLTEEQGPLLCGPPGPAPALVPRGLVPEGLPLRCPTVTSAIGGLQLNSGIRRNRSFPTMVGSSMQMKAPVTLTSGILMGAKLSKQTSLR

[3] = target: T2, endogenous TRAK1 of HEK293 cells (human (endogenous in HEK293)); experiment: co-IP; non-transfected HEK293 or SH-SY5Y cells; IP with TRAK1 antibody; endogenous proteins
[4] = target: T3, endogenous TRAK1 of SH-SY5Y cells (human (endogenous in SH-SY5Y)) (UniProt Q9UPV9); experiment: co-IP; non-transfected HEK293 or SH-SY5Y cells; more stringent protocol, lysates centrifuged at 100 000g; IP with TRAK1 antibody; identity of the DISC1 band confirmed by DISC1 siRNA in HEK293
T3 sequence: T2 sequence

[5] = target: T3, endogenous TRAK1 of SH-SY5Y cells (human (endogenous in SH-SY5Y)); experiment: co-IP; non-transfected HEK293 or SH-SY5Y cells; IP with TRAK1 antibody; endogenous proteins

B1: Myc-DISC1-37W (protein, UniProt Q9NRI5 1-854)
chain: MPGGGPQGAPAAAGGGGVSHRAGSRDCLPPAACFRRWRLARRPGYMRSSTGPGIGFLSPAVGTLFRFPGGVSGEESHHSESRARQCGLDSRGLLVRSPVSKSAAAPTVTSVRGTSAHFGIQLRGGTRLPDRLSWPCGPGSAGWQQEFAAMDSSETLDASWEAACSDGARRVRAAGSLPSAELSSNSCSPGCGPEVPPTPPGSHSAFTSSFSFIRLSLGSAGERGEAEGCPPSREAESHCQSPQEMGAKAASLDGPHEDPRCLSRPFSLLATRVSADLAQAARNSSRPERDMHSLPDMDPGSSSSLDPSLAGCGGDGSSGSGDAHSWDTLLRKWEPVLRDCLLRNRRQMEVISLRLKLQKLQEDAVENDDYDKAETLQQRLEDLEQEKISLHFQLPSRQPALSSFLGHLAAQVQAALRRGATQQASGDDTHTPLRMEPRLLEPTAQDSLHVSITRRDWLLQEKQQLQKEIEALQARMFVLEAKDQQLRREIEEQEQQLQWQGCDLTPLVGQLSLGQLQEVSKALQDTLASAGQIPFHAEPPETIRSLQERIKSLNLSLKEITTKVCMSEKFCSTLRKKVNDIETQLPALLEAKMHAISGNHFWTAKDLTEEIRSLTSEREGLEGLLSKLLVLSSRNVKKLGSVKEDYNRLRREVEHQETAYETSVKENTMKYMETLKNKLCSCKCPLLGKVWEADLEACRLLIQSLQLQEARGSLSVEDERQMDDLEGAAPPIPPRLHSEDKRKTPLKVLEEWKTHLIPSLHCAGGEQKEESYILSAELGEKCEDIGKKLLYLEDQLHTAIHSHDEDLIQSLRRELQMVKETLQAMILQLQPAKEAGEREAAASCMTAGVHEAQA
In the case of B1, the binding [1] is reported as “binds”.

B2: endogenous 100 kDa full-length DISC1 of HEK293 cells (protein, UniProt Q9NRI5 1-854)
chain: B1 chain with W37R
With B2 the binding [2] was “binds” and the binding [3] was “binds”.

B3: endogenous 100 kDa DISC1 of SH-SY5Y cells (protein, UniProt Q9NRI5 1-854)
chain: B1 chain with W37R
For B3, the binding [4] was “binds” and the binding [5] was “binds”.
